This sample is rich in variants without activity.
Experiments:
biotinyl-Trp-oxazolone = experiment: self-aminoacylation, catalytic enhancement (BWO) (fold over background); higher = more active; k-Seq, kA / k0A0; sequences stand for … in GGGAAUGGAUCCACAUCUACGAAUUC…UUCACUGCAGACUUGACGAAGCUG
Procedure, shortened: (§1)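 The uncatalyzed rate is the low-activity peak of a bimodal Gaussian fit, and catalytic enhancement is median kA divided by it. The kA values came from pseudo-first-order fits, with 1000 bootstraps, of per-sequence fraction reacted measured by streptavidin capture, triplicate qPCR and Illumina sequencing. Mutagenized RNA pools with a 21-nt variable region (0.43 μM) were reacted with each biotinyl-aminoacyl-oxazolone at 2–1250 μM in 50 μL HEPES/NaCl/KCl/MgCl2/CaCl2 buffer with 5% acetonitrile, pH 6.9–7.0, for 90 minutes at room temperature.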

biotinyl-Leu-oxazolone = experiment: self-aminoacylation, catalytic enhancement (BLO) (fold over background); higher = more active; k-Seq, kA / k0A0; sequences stand for … in GGGAAUGGAUCCACAUCUACGAAUUC…UUCACUGCAGACUUGACGAAGCUG
Procedure, shortened: as §1

biotinyl-Val-oxazolone = experiment: self-aminoacylation, catalytic enhancement (BVO) (fold over background); higher = more active; k-Seq, kA / k0A0; sequences stand for … in GGGAAUGGAUCCACAUCUACGAAUUC…UUCACUGCAGACUUGACGAAGCUG
Procedure, shortened: as §1

biotinyl-Ile-oxazolone = experiment: self-aminoacylation, catalytic enhancement (BIO) (fold over background); higher = more active; k-Seq, kA / k0A0; sequences stand for … in GGGAAUGGAUCCACAUCUACGAAUUC…UUCACUGCAGACUUGACGAAGCUG
Procedure, shortened: as §1

biotinyl-Met-oxazolone = experiment: self-aminoacylation, catalytic enhancement (BMO) (fold over background); higher = more active; k-Seq, kA / k0A0; sequences stand for … in GGGAAUGGAUCCACAUCUACGAAUUC…UUCACUGCAGACUUGACGAAGCUG
Procedure, shortened: as §1

Sequence	self-aminoacylation (biotinyl-Trp-oxazolone)	self-aminoacylation (biotinyl-Leu-oxazolone)	self-aminoacylation (biotinyl-Val-oxazolone)	self-aminoacylation (biotinyl-Ile-oxazolone)	self-aminoacylation (biotinyl-Met-oxazolone)
AAGUUUACCAAUAGUCGCAAG [Fam3.1 aminoacylation ribozyme variant]	1.78	1.42	1.67	1.98	1.48
AAGUUUACUAAUAGCCGCAAG [Fam3.1 aminoacylation ribozyme variant]	1.45	1.23	1.71	1.86	1.44
AAGUUUACUAAUAGGCGCAAG [Fam3.1 aminoacylation ribozyme variant]	0.846	0.954	1.02	1.21	1.07
AAGUUUACUAAUAGUCGAAAG [Fam3.1 aminoacylation ribozyme variant]	1.08	1.37	1.44	1.31	1.01
AAGUUUGCUAAUAGGGGCAAG [Fam3.1 aminoacylation ribozyme variant]	0.665	0.505	0.649	0.686	0.663
AAGUUUGCUAAUAGGUGCAAG [Fam3.1 aminoacylation ribozyme variant]	0.526	0.609	0.836	0.728	0.706
AAGUUUGCUAAUCGACGCAAG [Fam3.1 aminoacylation ribozyme variant]	0.72	0.477	0.547	0.534	0.581
AAGUUUGCUGAUAGUCGCAGG [Fam3.1 aminoacylation ribozyme variant]	1.83	1.9	1.33	1.48	1.99
AAGUUUUCUAAUAGUCGAAAG [Fam3.1 aminoacylation ribozyme variant]	1.39	0.996	1.04	1.24	1.05
AAGUUUUCUUAUAGUCGCAAG [Fam3.1 aminoacylation ribozyme variant]	1.81	1.75	1.46	1.86	1.54
AAUUUUGGUAAUAGUCGCAAG [Fam3.1 aminoacylation ribozyme variant]	1.77	1.8	1.56	2.06	–
ACACACUUCAAGCAAUAGGUC [Fam1B.1 aminoacylation ribozyme variant]	0.901	0.737	0.976	0.894	0.828
ACGUUUCCUAAUAGUCGCAAG [Fam3.1 aminoacylation ribozyme variant]	1.3	1.08	1.21	1.61	1.33
AGGUUUGCUAAUAGUCGCAUG [Fam3.1 aminoacylation ribozyme variant]	1.7	1.64	1.28	1.62	1.73
AGGUUUGCUUAUAGUCGCAAG [Fam3.1 aminoacylation ribozyme variant]	1.68	1.53	1.43	1.63	1.88

Source: the supplement of paper PMC9233669
